Taken from: PubChem BioAssay AID1159593 (NIAID, 2016)

Purpose: 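Canonical TLR pathway genes needed for NF-kappaB activation by LPS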
Cells: RAW264.7 macrophages of mouse, with reporters for p65 (GFP) and the Tnf promoter (mCherry)
Reagents: single siRNA against mouse genes
Timing: 48 to 72 hours after siRNA transfection, then LPS for 40 min
Treatment: LPS (Salmonella minnesota R595) for 40 min before fixation; dose not given
Measurement: 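High-content imaging of GFP-p65 moving into nuclei after 40 min LPS, plate median/MAD normalised, replicate mean of robust z-score relative to negative controls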
Direction: p65 translocation z-score: higher = more nuclear NF-kappaB p65 after LPS
Active means: 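Activity score grows with absolute z: 25 beyond 1, 50 beyond 1.5, 75 beyond 2, 100 beyond 2.5; active calls here sit at about z 1.5 or more either way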
Meaning of the calls: active = changed p65 translocation (either direction); inactive = no clear change
Here is a random part of 756 reagents tested. In the full data, 137 (18%) were called active. 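Active means p65 translocation went either up or down; genes were judged on the median of six siRNAs, not single siRNAs.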 The numbers tell different reagents against one gene apart. Not given: the amount of reagent.

gene	reagent	p65 translocation z-score	Call
Otud5	1	-0.515	inactive
Otud5	2	0.186	inactive
Otud5	3	-0.391	inactive
Otud5	4	0.971	inactive
Otud5	5	-0.231	inactive
Otud5	6	0.885	inactive
Tlr8	1	-0.126	inactive
Tlr8	2	0.649	inactive
Tlr8	3	-0.497	inactive
Tlr8	4	0.17	inactive
Tlr8	5	-2.29	active
Tlr8	6	0.021	inactive
Ifnar1	1	-1.43	inactive
Ifnar1	2	0.417	inactive
Ifnar1	3	-1.36	inactive
Ifnar1	4	1.14	inactive
Ifnar1	5	-0.0953	inactive
Ifnar1	6	-0.842	inactive
Nfkbib	1	-0.78	inactive
Nfkbib	2	0.354	inactive
Nfkbib	3	0.523	inactive
Nfkbib	4	0.555	inactive
Nfkbib	5	-0.739	inactive
Nfkbib	6	0.577	inactive
Pik3cg	1	-0.416	inactive
Pik3cg	2	-1.96	active
Pik3cg	3	-0.362	inactive
Pik3cg	4	1.17	inactive
Pik3cg	5	-0.275	inactive
Pik3cg	6	-1.84	active
Pik3r5	1	0.464	inactive
Pik3r5	2	0.664	inactive
Pik3r5	3	-0.445	inactive
Pik3r5	4	0.403	inactive
Pik3r5	5	-1.77	active
Pik3r5	6	-1.29	inactive
Sp1	1	-0.539	inactive
Sp1	2	-1.84	active
Sp1	3	0.386	inactive
Sp1	4	-0.304	inactive
Sp1	5	-0.0773	inactive
Sp1	6	0.357	inactive
Ep300	1	-2.52	active
Ep300	2	-1.31	inactive
Ep300	3	-0.8	inactive
Ep300	4	-1.1	inactive
Ep300	5	-1.23	inactive
Ep300	6	-1.34	inactive
Pik3ca	1	-0.808	inactive
Pik3ca	2	0.228	inactive
Pik3ca	3	0.132	inactive
Pik3ca	4	-0.793	inactive
Pik3ca	5	-1.93	active
Pik3ca	6	1.13	inactive
Irak3	1	-1.51	active
Irak3	2	-1.12	inactive
Irak3	3	-0.371	inactive
Irak3	4	-0.306	inactive
Irak3	5	-0.475	inactive
Irak3	6	-1.83	active

8 successive reagents from above, for reference:
gene	reagent	p65 translocation z-score	Call
Sp1	4	-0.304	inactive
Sp1	5	-0.0773	inactive
Sp1	6	0.357	inactive
Ep300	1	-2.52	active
Ep300	2	-1.31	inactive
Ep300	3	-0.8	inactive
Ep300	4	-1.1	inactive
Ep300	5	-1.23	inactive

The list goes on.
gene	reagent	p65 translocation z-score	Call
Tbk1	1	-0.0634	inactive
Tbk1	2	-0.0134	inactive
Tbk1	3	-0.169	inactive
Tbk1	4	0.294	inactive
Tbk1	5	-1.64	active
Tbk1	6	1.4	inactive
Akt1	1	-1.56	active
Akt1	2	-2.67	active
Akt1	3	0.427	inactive
Akt1	4	3.9	active
Akt1	5	-1.31	inactive
Akt1	6	-1.1	inactive
Elf4	1	0.0659	inactive
Elf4	2	-0.951	inactive
Elf4	3	-1.19	inactive
Elf4	4	-0.124	inactive
Elf4	5	-1.07	inactive
Elf4	6	0.192	inactive
Tlr3	1	1.03	inactive
Tlr3	2	-0.6	inactive
Tlr3	3	-0.932	inactive
Tlr3	4	0.347	inactive
Tlr3	5	-0.615	inactive
Tlr3	6	-0.118	inactive
Tab1	1	-0.134	inactive
Tab1	2	-0.484	inactive
Tab1	3	-0.667	inactive
Tab1	4	-0.622	inactive
Tab1	5	-1.79	active
Tab1	6	-0.0679	inactive
Pik3r2	1	-0.807	inactive
Pik3r2	2	0.0469	inactive
Pik3r2	3	0.0558	inactive
Pik3r2	4	-0.275	inactive
Pik3r2	5	1.3	inactive
Pik3r2	6	0.0213	inactive
Tirap	1	-2.05	active
Tirap	2	-0.64	inactive
Tirap	3	-1.62	active
Tirap	4	-3.13	active
Tirap	5	-2.15	active
Tirap	6	-2.46	active
Crebbp	1	-0.398	inactive
Crebbp	2	-2.64	active
Crebbp	3	-0.76	inactive
Crebbp	4	-0.812	inactive
Crebbp	5	0.174	inactive
Crebbp	6	0.338	inactive
Dab2ip	1	-0.412	inactive
Dab2ip	2	0.937	inactive
Dab2ip	3	-1.22	inactive
Dab2ip	4	2.5	active
Dab2ip	5	-0.345	inactive
Dab2ip	6	-0.245	inactive
